Measurements as given in publication PMC10822669.
Results are given in words; binding and its absence hold for the method and conditions named. Binding seen in cells or lysates may run through a third protein. Some results given as binding are weak or reduced against the parent protein; the word gives no strength.

Amino acid sequences for entries named in this document (tags omitted).
UniProt P46935: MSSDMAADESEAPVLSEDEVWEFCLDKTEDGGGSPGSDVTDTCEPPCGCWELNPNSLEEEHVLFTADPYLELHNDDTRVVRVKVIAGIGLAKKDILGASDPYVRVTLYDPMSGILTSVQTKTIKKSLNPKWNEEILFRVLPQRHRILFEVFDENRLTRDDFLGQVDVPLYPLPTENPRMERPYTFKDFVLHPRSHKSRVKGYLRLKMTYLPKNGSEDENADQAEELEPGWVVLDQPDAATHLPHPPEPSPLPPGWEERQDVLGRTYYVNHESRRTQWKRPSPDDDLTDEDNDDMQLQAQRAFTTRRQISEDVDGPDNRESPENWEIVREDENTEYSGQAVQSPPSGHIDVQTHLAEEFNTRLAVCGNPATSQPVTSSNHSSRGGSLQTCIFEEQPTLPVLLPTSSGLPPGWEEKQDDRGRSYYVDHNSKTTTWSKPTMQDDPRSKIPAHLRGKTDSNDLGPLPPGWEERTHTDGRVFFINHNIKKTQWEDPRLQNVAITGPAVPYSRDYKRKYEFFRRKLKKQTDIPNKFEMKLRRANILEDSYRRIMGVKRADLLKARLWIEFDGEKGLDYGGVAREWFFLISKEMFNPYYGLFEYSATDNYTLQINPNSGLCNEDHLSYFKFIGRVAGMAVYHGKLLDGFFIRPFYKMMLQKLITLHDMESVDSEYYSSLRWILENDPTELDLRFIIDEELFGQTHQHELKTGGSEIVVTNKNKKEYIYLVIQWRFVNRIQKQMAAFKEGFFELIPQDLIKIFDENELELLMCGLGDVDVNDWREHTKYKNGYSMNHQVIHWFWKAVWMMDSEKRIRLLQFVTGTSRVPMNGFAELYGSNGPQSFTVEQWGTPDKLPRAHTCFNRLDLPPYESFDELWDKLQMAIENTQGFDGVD
UniProt Q9WTV6: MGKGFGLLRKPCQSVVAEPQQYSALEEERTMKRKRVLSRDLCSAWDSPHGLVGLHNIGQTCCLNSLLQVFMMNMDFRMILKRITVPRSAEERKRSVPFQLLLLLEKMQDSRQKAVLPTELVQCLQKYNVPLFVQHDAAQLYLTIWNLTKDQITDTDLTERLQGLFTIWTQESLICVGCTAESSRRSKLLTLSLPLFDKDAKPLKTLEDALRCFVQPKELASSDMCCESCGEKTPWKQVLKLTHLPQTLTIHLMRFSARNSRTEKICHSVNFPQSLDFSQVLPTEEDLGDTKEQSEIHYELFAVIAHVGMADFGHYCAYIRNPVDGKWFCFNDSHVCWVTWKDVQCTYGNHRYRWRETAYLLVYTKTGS

What was measured:
[1] = target: T1, colony stimulating factor 1 receptor (CSF1R), exogenously expressed in HEK293T cells (not stated (human or mouse cDNA cloned)) (UniProt P09581); assay: co-IP; HEK293T cells transfected for 24 h; lysis in 25 mM Tris-HCl pH 8.0, 150 mM NaCl, 1 mM EDTA, 0.5% Igepal CA-630; IP 1-2 h with FLAG M2 affinity gel or primary antibodies and protein G/A agarose; western blot; reciprocal for NEDD4 and CSF1R
T1 sequence: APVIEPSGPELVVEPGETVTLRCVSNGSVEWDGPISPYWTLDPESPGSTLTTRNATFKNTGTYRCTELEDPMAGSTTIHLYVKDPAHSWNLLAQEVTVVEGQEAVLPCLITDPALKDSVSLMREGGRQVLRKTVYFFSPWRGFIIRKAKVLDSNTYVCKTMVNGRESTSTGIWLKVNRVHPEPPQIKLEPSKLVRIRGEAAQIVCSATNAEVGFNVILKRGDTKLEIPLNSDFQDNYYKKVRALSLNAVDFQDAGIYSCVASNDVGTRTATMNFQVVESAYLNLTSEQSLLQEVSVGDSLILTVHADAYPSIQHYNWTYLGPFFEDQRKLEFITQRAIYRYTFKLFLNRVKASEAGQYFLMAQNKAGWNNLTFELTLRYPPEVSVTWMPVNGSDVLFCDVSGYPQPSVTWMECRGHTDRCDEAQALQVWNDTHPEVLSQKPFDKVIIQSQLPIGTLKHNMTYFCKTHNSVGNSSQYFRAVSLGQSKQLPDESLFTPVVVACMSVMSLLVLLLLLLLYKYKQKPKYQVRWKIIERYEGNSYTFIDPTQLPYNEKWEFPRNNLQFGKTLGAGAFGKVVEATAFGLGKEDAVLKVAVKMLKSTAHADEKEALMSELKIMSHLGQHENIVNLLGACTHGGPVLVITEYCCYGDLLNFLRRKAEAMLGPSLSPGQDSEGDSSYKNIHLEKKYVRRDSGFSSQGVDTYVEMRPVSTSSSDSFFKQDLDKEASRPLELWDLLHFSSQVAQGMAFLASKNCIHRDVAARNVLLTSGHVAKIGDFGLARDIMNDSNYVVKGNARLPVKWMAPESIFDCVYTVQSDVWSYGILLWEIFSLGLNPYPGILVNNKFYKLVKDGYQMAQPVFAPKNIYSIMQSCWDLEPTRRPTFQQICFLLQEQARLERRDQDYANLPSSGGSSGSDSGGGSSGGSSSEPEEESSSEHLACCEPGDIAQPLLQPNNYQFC

[2] = target: T1, colony stimulating factor 1 receptor (CSF1R), exogenously expressed in HEK293T cells (not stated (human or mouse cDNA cloned)); assay: co-IP; HEK293T cells transfected for 24 h with CSF1R and NEDD4 in the presence of increasing USP18; co-IP followed by western blot
[3] = target: NEDD4, exogenously expressed in HEK293T cells (not stated (human or mouse cDNA cloned)) (UniProt P46935); assay: co-IP; HEK293T cells transfected for 24 h; lysis in 25 mM Tris-HCl pH 8.0, 150 mM NaCl, 1 mM EDTA, 0.5% Igepal CA-630; IP 1-2 h with FLAG M2 affinity gel or primary antibodies and protein G/A agarose; western blot; reciprocal for NEDD4 and CSF1R

binding [1]	binding [2]	binding [3]	Substance
binds	binds		NEDD4, exogenously expressed in HEK293T cells (from UniProt P46935 1-887) (enzyme)
		binds	USP18, exogenously expressed in HEK293T cells (from UniProt Q9WTV6 1-368) (enzyme)
